Several values for one entry are separate records, joined by “and”; a condition that tells them apart may be missing. Identical values can stand only once. This continues a long series; more values of the same kind are listed elsewhere.
System: PBMC of RRMS patients
Assay: Gene expression microarray analysis (HG-U133A-2) of PBMC from RRMS patients treated with LAQ, ancillary study to ALLEGRO
Type: in vivo, human
Source text: The goal of this ancillary study was to characterize gene expression changes and corresponding biological mechanisms induced in PBMC of RRMS patients by LAQ treatment. According to ALLEGRO clinical trial inclusion criteria, 25 patients were randomly assigned to receive LAQ (n=13, age 38.8±2.3 years, female/male ratio: 8/5) or placebo (n=12, age 37.2±3.4 years, female/male ratio: 8/4).
Peripheral blood samples were obtained from RRMS patients at baseline before start of LAQ treatment or placebo, after 0, 1, 6 and 24 month of treatment (visit 0, 1, 6 and 7 according to ALLEGRO clinical trial protocol correspondently) for gene microarray analysis.
Briefly, 1) Peripheral blood mononuclear cells (PBMC) were obtained from RRMS patients that participated in ALLEGRO and were treated daily with 0.6 mg LAQ or placebo. PBMC were subjected for gene expression analysis (HU-133A-2-Affymatrix arrays) at baseline and at 1 and 6 months of LAQ treatment; 2) Data was analyzed by Partek Genomics Solution software. Most informative genes (MIGs) were defined as those that differentiated between groups with p<0.01. Gene functional annotation, enrichment and pathway analysis were performed by Ingenuity software. For each time point, genes that changed in placebo group were excluded from further analysis; and 3) Verification of LAQ related mechanism was performed by Western blot.
PBMC were extracted from 15 ml peripheral blood, separated by Ficoll-Hypaque gradient. Total RNA was extracted using both Trizol (Invitrogen, USA) and Phase-Lock-Gel columns (Eppendorf, Germany) including a DNase digestion step. RNA integrity was assessed by RNA Experion automated electrophoresis system (Bio-Rad Laboratories, Hercules, Calif.).
Probe synthesis using 3 μg total RNA, hybridization, detection, and scanning was performed according to the standard Affymetrix, Inc. USA protocols; cDNA was synthesized using the Two-Cycle cDNA Synthesis Kit (Affymetrix, Inc., USA), and in-vitro transcription performed with the GeneChip IVT Labeling Kit (Affymetrix, Inc., USA). The biotin-labeled IVT-RNA was hybridized to HG-U133A-2 arrays containing 18,400 gene transcripts, each corresponding to 14,500 well-annotated human genes, washed in a GeneChip Fluidics Station 450 (Hewlett Packard, USA, GeneArray-™ scanner G2500A) and scanned according to the manufacturer's protocol (Affymetrix, Inc., USA).
Data analysis was performed on Partek Genomics Solution software (www.partek.com; Partek Incorporated, St. Louis, Mo.). Expression values were computed from raw CEL files by applying the Robust Multi-Chip Average (RMA) background correction algorithm. RMA correction included: 1) values background correction; 2) quintile normalization; 3) log 2 transformation; and 4) median polish summarization. The ANOVA, Repeated Measures and correlation analysis implicated in Partek software ware applied to evaluate LAQ effects. Most informative genes MIGs were defined as those that differentiated between experimental groups with p<0.01. All p-values were calculated for False Discovery Rate (FDR) multiple test correction at p=0.05.
Additionally, significance of individual genes was tested by parametric T-test and non parametric Mann-Whitney test using Bootstrapping approach based on repeated permutations of the data with 5% FDR for multiple testing.
Gene functional annotation, enrichment, and pathway analyses to identify the leading biological pathways that operated under LAQ treatment were performed by Ingenuity Pathways Analysis software (www.ingenuity.com).
ANOVA analysis was used to compare PBMC gene expression after 1, 6 or 24 month of LAQ treatment with baseline gene expression.
For each time point inventors performed analysis source of variation in dataset. (FIG. 1). Age, gender and batch effects were considered as confounders regarding LAQ or Placebo related changes. For each time point genes associated with Placebo effect were evaluated and excluded from further analysis. […]

SMILES: CCN(C(=O)c1c(O)c2c(Cl)cccc2n(C)c1=O)c1ccccc1 [LAQ, 5-chloro-N-ethyl-4-hydroxy-1-methyl-2-oxo-N-phenyl-1,2-dihydroquinoline-3-carboxamide]
- Fold-Change (4.0 vs. 0.0) (gene PNPLA2, six months of treatment): −1.147
- Fold-Change (4.0 vs. 0.0) (gene PODNL1, after six months of LAQ): −1.132
- Fold-Change (4.0 vs. 0.0) (gene POFUT2, after six months of LAQ): −1.274
- Fold-Change (4.0 vs. 0.0) (gene POU1F1, PBMC, six months of LAQ treatment): −1.102
- Fold-Change (4.0 vs. 0.0) (gene PP14571, six months of treatment): −1.148
- Fold-Change (4.0 vs. 0.0) (gene PPAP2B, after six months of LAQ): −1.2452
- Fold-Change (4.0 vs. 0.0) (gene PPL, after six months of LAQ): −1.139
- Fold-Change (4.0 vs. 0.0) (gene PPP5C, after six months of LAQ): −1.261
- Fold-Change (4.0 vs. 0.0) (gene PRDM4, after six months of LAQ): −1.142
- Fold-Change (4.0 vs. 0.0) (gene PRDM5, PBMC, six months of LAQ treatment): −1.118
- Fold-Change (4.0 vs. 0.0) (gene PREX2, PBMC, six months of LAQ treatment): −1.118
- Fold-Change (4.0 vs. 0.0) (gene PRICKLE3, PBMC, six months of LAQ treatment): −1.121
- Fold-Change (4.0 vs. 0.0) (gene PRKAR1B, PBMC, six months of LAQ treatment): −1.118
- Fold-Change (4.0 vs. 0.0) (gene PRKCA, PBMC, six months of LAQ treatment): −1.122
- Fold-Change (4.0 vs. 0.0) (gene PRKD1, PBMC, six months of LAQ treatment): −1.092
- Fold-Change (4.0 vs. 0.0) (gene PRLH, after six months of LAQ): −1.262
- Fold-Change (4.0 vs. 0.0) (gene PROX1): −1.194
- Fold-Change (4.0 vs. 0.0) (gene PRRG3, after six months of LAQ): −1.258
- Fold-Change (4.0 vs. 0.0) (gene PRRX2, six months of treatment): −1.147
- Fold-Change (4.0 vs. 0.0) (gene PRSS2, after six months of LAQ): −1.2322
- Fold-Change (4.0 vs. 0.0) (gene PRSS3, after six months of LAQ): −1.225
- Fold-Change (4.0 vs. 0.0) (gene PRUNE2, six months of treatment): −1.157
- Fold-Change (4.0 vs. 0.0) (gene PSG1, six months of treatment): −1.152
- Fold-Change (4.0 vs. 0.0) (gene PTCRA, after six months of LAQ): −1.359
- Fold-Change (4.0 vs. 0.0) (gene PTGER1, after six months of LAQ): −1.123
- Fold-Change (4.0 vs. 0.0) (gene PTGER3, six months of treatment): −1.146
- Fold-Change (4.0 vs. 0.0) (gene PTH, PBMC, six months of LAQ treatment): −1.105
- Fold-Change (4.0 vs. 0.0) (gene PTHLH, PBMC, six months of LAQ treatment): −1.1157
- Fold-Change (4.0 vs. 0.0) (gene PTN, PBMC, six months of LAQ treatment): −1.115
- Fold-Change (4.0 vs. 0.0) (gene PTN, six months of treatment): −1.158
- Fold-Change (4.0 vs. 0.0) (gene PTPRF, after six months of LAQ): −1.127
- Fold-Change (4.0 vs. 0.0) (gene PTPRF, six months of treatment): −1.158
- Fold-Change (4.0 vs. 0.0) (gene PVRL2, after six months of LAQ): −1.272
- Fold-Change (4.0 vs. 0.0) (gene PVT1): −1.188
- Fold-Change (4.0 vs. 0.0) (gene PXN, after six months of LAQ): −1.248
- Fold-Change (4.0 vs. 0.0) (gene RAB6B, after six months of LAQ): −1.376
- Fold-Change (4.0 vs. 0.0) (gene RAB17, after six months of LAQ): −1.24
- Fold-Change (4.0 vs. 0.0) (gene RAD54L, PBMC, six months of LAQ treatment): −1.109
- Fold-Change (4.0 vs. 0.0) (gene RAG2, after six months of LAQ): −1.138
- Fold-Change (4.0 vs. 0.0) (gene RAMP3, after six months of LAQ): −1.368
- Fold-Change (4.0 vs. 0.0) (gene RAP1GAP, after six months of LAQ): −1.14
- Fold-Change (4.0 vs. 0.0) (gene RAPGEF4, after six months of LAQ): −1.129
- Fold-Change (4.0 vs. 0.0) (gene RAPGEF5): −1.188
- Fold-Change (4.0 vs. 0.0) (gene RAPSN, after six months of LAQ): −1.266
- Fold-Change (4.0 vs. 0.0) (gene RASL11B, after six months of LAQ): −1.1329
- Fold-Change (4.0 vs. 0.0) (gene RASL12, six months of treatment): −1.149
- Fold-Change (4.0 vs. 0.0) (gene RAX, after six months of LAQ): −1.25
- Fold-Change (4.0 vs. 0.0) (gene RBBP9): −1.192
- Fold-Change (4.0 vs. 0.0) (gene RBM12B, PBMC, six months of LAQ treatment): −1.116
- Fold-Change (4.0 vs. 0.0) (gene RBM15B, after six months of LAQ): −1.141
- Fold-Change (4.0 vs. 0.0) (gene RBM26, six months of treatment): −1.16
- Fold-Change (4.0 vs. 0.0) (gene RECQL5): −1.194
- Fold-Change (4.0 vs. 0.0) (gene RGS4, six months of treatment): −1.15
- Fold-Change (4.0 vs. 0.0) (gene RHAG, after six months of LAQ): −1.1352
- Fold-Change (4.0 vs. 0.0) (gene RHBDD3, six months of treatment): −1.16
- Fold-Change (4.0 vs. 0.0) (gene RHD, after six months of LAQ): −1.276
- Fold-Change (4.0 vs. 0.0) (gene RIBC2, after six months of LAQ): −1.24
- Fold-Change (4.0 vs. 0.0) (gene RIOK3, after six months of LAQ): −1.265
- Fold-Change (4.0 vs. 0.0) (gene RIPK2, after six months of LAQ): −1.369
- Fold-Change (4.0 vs. 0.0) (gene RLINX1, after six months of LAQ): −1.243
- Fold-Change (4.0 vs. 0.0) (gene RNF17, six months of treatment): −1.15
- Fold-Change (4.0 vs. 0.0) (gene RP11-35N6.1, after six months of LAQ): −1.129
- Fold-Change (4.0 vs. 0.0) (gene RP11-257K9.7, six months of treatment): −1.159
- Fold-Change (4.0 vs. 0.0) (gene RPE65, after six months of LAQ): −1.131
- Fold-Change (4.0 vs. 0.0) (gene RTEL1, six months of treatment): −1.147
- Fold-Change (4.0 vs. 0.0) (gene RTN2, after six months of LAQ): −1.268
- Fold-Change (4.0 vs. 0.0) (gene RUNX1, after six months of LAQ): −1.133
- Fold-Change (4.0 vs. 0.0) (gene RXRG, six months of treatment): −1.148
- Fold-Change (4.0 vs. 0.0) (gene S1PR2, after six months of LAQ): −1.14
- Fold-Change (4.0 vs. 0.0) (gene SAMD14, after six months of LAQ): −1.293
- Fold-Change (4.0 vs. 0.0) (gene SASH1, PBMC, six months of LAQ treatment): 1.644 and 2.013
- Fold-Change (4.0 vs. 0.0) (gene SCML2, after six months of LAQ): −1.239
- Fold-Change (4.0 vs. 0.0) (gene SCN11A, after six months of LAQ): −1.124
- Fold-Change (4.0 vs. 0.0) (gene SDHB, after six months of LAQ): −1.253
- Fold-Change (4.0 vs. 0.0) (gene SEMA3E, six months of treatment): −1.153
- Fold-Change (4.0 vs. 0.0) (gene SEMA3F, after six months of LAQ): −1.14
- Fold-Change (4.0 vs. 0.0) (gene SEMA6A, after six months of LAQ): −1.235
- Fold-Change (4.0 vs. 0.0) (gene SERPINA3, six months of treatment): −1.16
- Fold-Change (4.0 vs. 0.0) (gene SERPINA6, after six months of LAQ): −1.123
- Fold-Change (4.0 vs. 0.0) (gene SEZ6L2, six months of treatment): −1.144
- Fold-Change (4.0 vs. 0.0) (gene SHOX2, after six months of LAQ): −1.14
- Fold-Change (4.0 vs. 0.0) (gene SHROOM2, after six months of LAQ): −1.225

— patent publication US20160201132A1, “GENE EXPRESSION BIOMARKERS OF LAQUINIMOD RESPONSIVENESS” (Teva Pharmaceutical Industries Ltd., priority 2013, published 2016)
